According to article PMC2587467:
No constants are given. Whether binding was seen depends on the method and setting. Binding seen in cells or lysates may run through a third protein. A result given as binding can be weak or reduced; the word gives no strength.

Tests used:
[1] = biological target: protein phosphatase one (PP1), rat liver nuclei (rat (endogenous in rat liver nuclei)); test: pull-down; rat liver nuclear extract incubated with microcystin-Sepharose 1 h at 4°C, washed with buffer A (25 mM Tris-HCl pH 7.5) plus 300 mM NaCl; PP1 held on the matrix; proteins eluted with peptide (0.1-2 mM), then 3 M NaSCN; western blot
[2] = biological target: protein phosphatase one (PP1), rat liver nuclei (rat (endogenous in rat liver nuclei)); test: pull-down; synthetic peptide (0.1, 0.5, 2 mM in buffer A plus 300 mM NaCl, pH 7.5) incubated 30 min with PP1 complexes from rat liver nuclei held on microcystin-Sepharose; displacement of regulatory subunits read by western blot; more effective at higher ionic strength; only the binder purified

Binder | binding [1] | binding [2]
ZAP (ZAP3), YLPM-motif containing PP1 interactor, rat liver nuclei (protein, UniProt P0CB49 1-1376) MYPNWGRYGGSSHYPPPPVPPPPPPVALPEASPGPGYSSSTAPAAPSSSGFMSFREQHLAQLQQLQQMHQKQMQCVLQPHHLPPPPLPPPPVMPGGGYGDWQPPPPPMPPPPGPALSYQKQQQYKHQMIHHQRDGPPGLVPMELESPPESPPVPPGSYMPPSQSYMPPPQPPPSYYPPSSAQPYLPPAQPSPSKPQLPPPPPSIPSGNKTTIQQEPLETGAKNKNAEQKQAAPEPDPSTMTPQEQQQYWYRQHLLSLQQRTKVHLPGHKKGLVTAKDVPEPIKEEAPVPATSQIAEPLAAEEPPLPPPNEEMPPPLPPEEPQNNSSEMSEDPEEDARLKQLQAAAAHWQQHQQHRVGFQYQGIMQRHTQLQQILQQYQQVIQHSPHIQTMSLDVQLRHYEMQQQQFQRLYQEWEREFQLWEEQLHSYPHKDQLEEYEKQWKSWQGHMRATQTYLQEKVTSFQAVKNQYMGNMAMPPPFVPYSQMPPPLPTMPPPVLPPSLPPPVMPPALPSTIPPPGMPPPVMPPSLPTSVPPPGMPPSLSSAVLPPPSLSSAGPPPVLPPPSLSGAPPVLPLPPLSSATPPPGIPPPGVPQGMPPQLTAPVPPASSSQNSQVPEKPRQALLPTPVSFGSTPPSPYHPPPQSEQGNSKPLNKVFSSEQGLGESSSALSQSVIAAKDTPVKSGGLLADPPKGSFLEGPRGPREQKEQLQKLKDFGSEPQTADHLPPPDSRLQNTSRPGMYPPPGSYRPPPPMGKPPGSIVRPSAPPARSCVPMTRPPVPIPPPPPPPPPPPPPPPVIKPKTSSVKQERWDEDSFFGLWDTNDDQGLNSEFKRDTAAIPSAPVLPPPPVHPSIPPPGPMPMGMPPMSKPPPVQHTVDYGHGRDMPTNKVEQIPYGERITLRPDPLPERSAFDADHAGQRDRYDRDRDREPYFDRQSNMTDHRDFKRDRETHRDRDRVLDYERDRFDRERRPRDDRNQSYRDKKDHSSSRRGGFDRPSYDRKSDRPPYEGPPMFGGERRTYPEERMPLPAPSLGHQPPPVPRVEKKPESKNVDDILKPPGRESRPERIVVIMRGLPGSGKTHVAKLIRDKEVEFGGPAPRVLSLDDYFIAEVEKEEKDPDSGKKVKKKVMEYEYEADMEETYRTSMFKTFKKTLDDGFFPFIILDAINDRVRHFDQFWSAAKTKGFEVYLAEMSADNQTCGKRNIHGRKLKEINKMAEHWEAAPRHMMRLDIRSLLQDAAIEEVEMEDFDANIEDQKEEKKDAEEEESELGYIPKSKWEMDTSEAKLDKLDGLRTGTKRKRDWEAIASRMEDYLQLPDDYETRASEPGKKRVRWADLEEKKDADRKRAIGFVVGQTDWEKITDESGHLAERALNRTKYI | binds | –
p99 (PNUTS), rat liver nuclei (protein, UniProt O55000 1-872) MGSGPIDPKELLKGLDSFLTRDGEVKSVDGIAKIFSLMKEARKMVSRCTYLNIILQTRAPEVLVKFIDVGGYKLLNSWLTYSKTTNNIPLLQQILLTLQHLPLTVDHLKQNNTAKLVKQLSKSSEDEELRKLASVLVSDWMAVIRSQSSTQPAEKDKKKRKEEGKSRTTLPERPLTEVKAETRAEEAPEKKKEKPKSLRTTAPSHAKFRSTGLELDTPSLVPVKKNSSTVVVSDKYNLKPIPLKRQSATAAPGDAAPPAEKKYKPLNTTPNTTKEIKVKIIPPQPMEGLGFLDALNSAPVPGIKIKKKKKVLSPTAAKPSPFEGKTSTEPSTAKPSSPEPAAPAEPMDTDRPGTPVPAVEVPELMDAASSEPGALDAKPVESPGDPNQLTRKGRKRKTVTWPEEGKLREYFYFELDETERVNVNKIKDFGEAAKREILSDRHAFETARRLSHDNMEEKVPWVCPRPLVLPSPLVIPGSNSQERYIQAEREKGILQELFLNKESPHEPDPEPYEPIPPKLIPLDEECAMDETPYVETLEPGGSGGSPDGAGGSKLPPVLANLMGSMGAGKSPQGPGGGGINVQEILTSIMGSPNNHPSEELLKQPDYSDKLKQMLVPHGLLGPGPVANGFPPGGPGGPKGMQHFPPGPGGPMPGPHGGPGGPVGPRLLGPPPPSRGGDPFWDGPGDPMRGGPMRGGPGPGPGPYHRGRGGRGGNEPPPPPPFRGARGGRSGGGPPNGRGGPGGGGMVGGGGHRPHEGPGGSMGSGHRSHEGPGGSMGSGHRSHEGPGHGGPHGHRPHDVPSHRGHDHRGPPPHEHRGHDGHGGGGHRGHDGGHSHGGDMSNRPVCRHFMMKGNCRYENNCAFYHPGVNGPPLP | binds | –
GKKRVRWADLE [ZAP peptide …] | – | binds
